Some entries share one result that the patent states for a list of compounds.
Legend:
Hela cells = assay: Evaluation of cell staining: fluorescence intensity by plate reader; format: cell-based; conditions: summary of the results
Description: Each colorant solution was diluted 20-fold with an Eagle's minimum essential medium (commercially available from FUJIFILM Wako Pure Chemical Corporation) to prepare a fluorescent labeling agent containing 1 μM of the colorant for fluorescent labeling.
Hela cells were seeded in a 96-well plate (1×10^4 cells/well), and cultured in an incubator (37° C., 5% CO2-containing Air, humidified environment) for 48 hours using an Eagle's minimum essential medium (commercially available from FUJIFILM Wako Pure Chemical Corporation) containing 10% Fetal Bovine Serum (FBS) and 1% penicillin-streptomycin. Then, the medium was removed, and the fluorescent labeling agent prepared above was added to each well. […] Using a plate reader (SPARK, commercially available from Tecan Group Ltd.), the fluorescence intensity was measured in a range of 780 to 800 nm, and evaluated based on the following criteria. […] The evaluation results are shown in “fluorescence intensity during cell staining” in Table 8.
• 4: fluorescence intensity measurement value 2,000 or more • 3: fluorescence intensity measurement value less than 2,000 to 1,000 or more • 2: fluorescence intensity measurement value less than 1,000 to 500 or more • 1: fluorescence intensity measurement value less than 500

[1] = Measurement of average particle size (Z average, dynamic light scattering) of colorant dispersed component in PBS dispersion; format: physicochemical
Description: The average particle size of the colorant dispersed component contained in the colorant dispersion I can be measured as follows.
A colorant solution is obtained by dissolving a colorant for fluorescent labeling in an organic solvent that can dissolve the colorant for fluorescent labeling so that the concentration is 20 μM. The colorant solution is diluted 10-fold with PBS and mixed to prepare a colorant dispersion I with a concentration of 2 μM.
Here, the method of mixing the colorant solution and the PBS is not particularly limited, and for example, a method of adding a colorant solution to PBS is preferable. Mixing may be performed separately in a plurality of steps. […]
The particle size distribution of the colorant dispersion I obtained as above is measured using a particle size distribution measuring device (Zetasizer Nano ZSP, commercially available from Spectris). […]
As the value of the average particle size, values such as a Z average particle size, a number average particle size, a volume average particle size, and an area average particle size can be used. In the present invention, the Z average particle size measured by a dynamic light scattering method is defined as the average particle size of the colorant dispersed component contained in the colorant dispersion I. […]

CCCCCCCCCCCCCCCCCCN1/C(=C/C=C/C=C/C=C/C2=[N+](CCCCCCCCCCCCCCCCCC)c3ccccc3C2(C)C)C(C)(C)c2ccccc21.[I-] [Comparative compound 6]
Cell staining (in words) (Hela cells): cell staining was weak | Average particle size of the colorant dispersed component when dispersed in PBS (in words) [1]: large

Aluminum 1, 8, 15, 22-tetrakis(phenylthio)-29H, 31H-phthalocyanine chloride [Comparative compound 3]
Cell staining (in words) (Hela cells): cell staining was weak | Average particle size of the colorant dispersed component when dispersed in PBS (in words) [1]: large
